Earlier results as cited in patent US7473711B2, “Androgen modulators” (Pfizer Inc., priority 2004, dated 2009).
For at least one compound, name, drawing or mass did not settle the structure.

Key:
hair growth [1] = details: Tosti, Dermatologica 1986; cited from earlier work
hair growth [2] = details: 83 males, topical solution of 3% minoxidil, 19 months; cited from earlier work

SMILES: Nc1cc(N2CCCCC2)nc(N)[n+]1[O-] [minoxidil, Minoxidil]
- subjects with cosmetically acceptable re-growth (hair growth [1]): 18.1%
- subjects in whom hair growth occurred (hair growth [2]): 55%
- subjects who considered the growth cosmetically relevant (hair growth [2]): 20%
